Test results: publication PMC3942315, “Structural Insights Into DNA Repair by RNase T—An Exonuclease Processing 3′ End of Structured DNA in Repair Pathways” (PLoS Biology, 2014)
No constants are given. Whether binding was seen depends on the method and setting.

Assays:
[1] = biological target: ExoI (E. coli) (UniProt P04995); assay: dynamic light scattering; purified recombinant proteins in solution; conditions not given; both purified
[2] = biological target: ExoX (E. coli) (UniProt P0AEK0); assay: as above

binding [1] | binding [2] | Binder
no binding | – | ExoI (enzyme, UniProt P04995 1-475) MMNDGKQQSTFLFHDYETFGTHPALDRPAQFAAIRTDSEFNVIGEPEVFYCKPADDYLPQPGAVLITGITPQEARAKGENEAAFAARIHSLFTVPKTCILGYNNVRFDDEVTRNIFYRNFYDPYAWSWQHDNSRWDLLDVMRACYALRPEGINWPENDDGLPSFRLEHLTKANGIEHSNAHDAMADVYATIAMAKLVKTRQPRLFDYLFTHRNKHKLMALIDVPQMKPLVHVSGMFGAWRGNTSWVAPLAWHPENRNAVIMVDLAGDISPLLELDSDTLRERLYTAKTDLGDNAAVPVKLVHINKCPVLAQANTLRPEDADRLGINRQHCLDNLKILRENPQVREKVVAIFAEAEPFTPSDNVDAQLYNGFFSDADRAAMKIVLETEPRNLPALDITFVDKRIEKLLFNYRARNFPGTLDYAEQQRWLEHRRQVFTPEFLQGYADELQMLVQQYADDKEKVALLKALWQYAEEIV
– | no binding | ExoX (enzyme, UniProt P0AEK0 1-220) MLRIIDTETCGLQGGIVEIASVDVIDGKIVNPMSHLVRPDRPISPQAMAIHRITEAMVADKPWIEDVIPHYYGSEWYVAHNASFDRRVLPEMPGEWICTMKLARRLWPGIKYSNMALYKTRKLNVQTPPGLHHHRALYDCYITAALLIDIMNTSGWTAEQMADITGRPSLMTTFTFGKYRGKAVSDVAERDPGYLRWLFNNLDSMSPELRLTLKHYLENT
